Consider 1 substance from KR20210154940A.

Amino acid sequences for entries named in this document (tags omitted). A change or cut given only in a name is not applied to a line headed by its entry.
UniProt P13688: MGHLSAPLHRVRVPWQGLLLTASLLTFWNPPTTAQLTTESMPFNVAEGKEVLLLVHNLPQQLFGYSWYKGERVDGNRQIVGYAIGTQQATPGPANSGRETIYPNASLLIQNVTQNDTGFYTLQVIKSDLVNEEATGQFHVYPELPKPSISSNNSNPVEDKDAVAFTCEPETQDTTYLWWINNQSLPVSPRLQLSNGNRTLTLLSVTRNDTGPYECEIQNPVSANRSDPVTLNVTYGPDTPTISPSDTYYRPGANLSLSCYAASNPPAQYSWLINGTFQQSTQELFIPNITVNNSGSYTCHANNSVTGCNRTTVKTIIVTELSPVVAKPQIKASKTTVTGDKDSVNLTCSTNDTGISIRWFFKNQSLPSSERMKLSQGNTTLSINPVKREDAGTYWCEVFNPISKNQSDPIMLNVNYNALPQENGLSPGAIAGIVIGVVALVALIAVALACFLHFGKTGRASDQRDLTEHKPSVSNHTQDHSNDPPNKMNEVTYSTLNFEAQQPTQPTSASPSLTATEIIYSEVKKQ

These are yes or no findings as the source states them, for the method shown. Some entries that bind do so weakly or less than the wild type.

In this experiment the target is hCEACAM1-Fc (human CEACAM1 extracellular domain Gln35-Gly428 fused to human IgG4 Fc) (human) (UniProt P13688). The experiment can be described thus: ELISA; hCEACAM1-Fc coated at 2.5 ㎍/㎖, biotin-hCEACAM1-Fc titrated from 150 ㎍/㎖. (In an ELISA, binding on a coated surface is turned into a signal by an enzyme label.)

On to “hCEACAM1-Fc (human CEACAM1 extracellular domain Gln35-Gly428 fused to human IgG4 Fc) (from UniProt P13688 35-428) (Fc fusion)”, for which the binding result was “binds”.
